Here are results for 79 compounds from the supplement of paper PMC3682954.

The test concerns RAW 264.7. The experiment in a line: HMGB1-induced TNF-alpha production relative to HMGB1-stimulated control; higher = more TNF-alpha secretion (less inhibition). The conditions noted are these: stimulus: HMGB1 5 ug/ml, 18 h.
Setting [1] is: compound concentration: 1 ug/ml.

Values joined by “and” are separate entries in the source; they are usually repeats but may differ in a detail not shown here. Equal entries are not always repeated. Structures can show the parent of a compound that is named as a salt. ± gives the standard deviation of the averaged measurements. This is one part of the list. Single values are uncertain, as repeats are few or missing.

As for `COCCCOc1ccnc(C[S+]([O-])c2nc3ccccc3[nH]2)c1C` (centres undefined) [Rabeprazole], the “HMGB1-induced TNF-alpha production” value (compound concentration: 3 uM) turned out to be 103%.
Same read-out and setting: the value for `O=C(O)Cc1cc(I)c(Oc2ccc(O)c(I)c2)c(I)c1` [Tiratricol, 3,3',5-triiodothyroacetic acid] was 69.2%; that for `O=C(O)Cc1cc(I)c(Oc2ccc(O)c(I)c2)c(I)c1` was 102%; that for `NS(=O)(=O)C#Cc1ccccc1` [Pifithrin-mu] was 49.4%.
As to `Nc1c(S(=O)(=O)O)cc(Nc2ccc(Nc3nc(Cl)nc(Nc4cccc(S(=O)(=O)O)c4)n3)c(S(=O)(=O)O)c2)c2c1C(=O)c1ccccc1C2=O` [Reactive Blue 2], the “HMGB1-induced TNF-alpha production” value (compound concentration: 3 uM) is 90.7%.
Take `CSc1nc(N)c2ncn([C@@H]3O[C@H](COP(=O)(O)OP(=O)(O)O)[C@H](O)C3O)c2n1` (some centres undefined): the “HMGB1-induced TNF-alpha production” value (compound concentration: 3 uM) amounted to 97%.
Consider `Cc1ccc(C(=O)C(C)CN2CCCCC2)cc1` (centres undefined), for which the “HMGB1-induced TNF-alpha production” value (compound concentration: 3 uM) is 86.5%.
Consider `CNCC[C@@H](Oc1ccccc1C)c1ccccc1`, for which the “HMGB1-induced TNF-alpha production” value (compound concentration: 3 uM) turned out to be 50.7%.
In the case of `CNCC[C@@H](Oc1ccccc1C)c1ccccc1` [Tomoxetine hydrochloride], under “compound concentration: 3 uM”, the “HMGB1-induced TNF-alpha production” value worked out at 110%.
Regarding `CNCC[C@@H](Oc1ccccc1C)c1ccccc1` [Tomoxetine], under “compound concentration: 3 uM”, the “HMGB1-induced TNF-alpha production” value turned out to be 105%.
On the same count and under the same terms, the same measure for `c1ccc(CN2CCC3(CCCc4ccccc43)CC2)cc1` [L-687,384 hydrochloride]: 92.1%; for `O=C(CCCCC(=O)Nc1c(I)cc(I)c(C(=O)O)c1I)Nc1c(I)cc(I)c(C(=O)O)c1I`: 86.4%; for `O=C(CCCCC(=O)Nc1c(I)cc(I)c(C(=O)O)c1I)Nc1c(I)cc(I)c(C(=O)O)c1I` [Iodipamide]: 109%.
`C[C@@H]1O[C@@H](O[C@H]2[C@H](Oc3cc(O)c4c(c3)O[C@H](c3ccc(O)cc3)CC4=O)O[C@H](CO)[C@@H](O)[C@@H]2O)[C@H](O)[C@H](O)[C@H]1O` [Naringin]: the “HMGB1-induced TNF-alpha production” value under setting [1] amounted to 82%.
`N=C(N=C(N)N)N1CCOCC1` [Moroxidine hydrochloride]: for the setting “compound concentration: 3 uM”, the “HMGB1-induced TNF-alpha production” value came out at 89%.
As to `CC(=O)OCC(=O)[C@@]12OC3(CCCC3)O[C@@H]1C[C@H]1[C@@H]3CCC4=CC(=O)C=C[C@]4(C)[C@@]3(F)[C@@H](O)C[C@@]12C`, the “HMGB1-induced TNF-alpha production” value (compound concentration: 3 uM) is 43.4%.
On the same count and under the same terms, the value for `CC(=O)OCC(=O)[C@@]12OC3(CCCC3)O[C@@H]1C[C@H]1[C@@H]3CCC4=CC(=O)C=C[C@]4(C)[C@@]3(F)[C@@H](O)C[C@@]12C` [Amcinonide] was 46.6%; that for `C[C@@H]1O[C@@H](OC[C@H]2O[C@@H](Oc3c(-c4ccc(O)c(O)c4)oc4cc(O)cc(O)c4c3=O)[C@H](O)[C@@H](O)[C@@H]2O)[C@H](O)[C@H](O)[C@H]1O` was 102%.
Turning to `C[C@@H]1O[C@@H](OC[C@H]2O[C@@H](Oc3c(-c4ccc(O)c(O)c4)oc4cc(O)cc(O)c4c3=O)[C@H](O)[C@@H](O)[C@@H]2O)[C@H](O)[C@H](O)[C@H]1O` [Rutine], under setting [1], the “HMGB1-induced TNF-alpha production” value came out at 60.9%.
On the same count and under the same terms, the same measure for `C[C@@H]1O[C@@H](OC[C@H]2O[C@@H](Oc3c(-c4ccc(O)c(O)c4)oc4cc(O)cc(O)c4c3=O)[C@H](O)[C@@H](O)[C@@H]2O)[C@H](O)[C@H](O)[C@H]1O` [Rutin]: 76.9%.
Take `C[C@@H]1O[C@@H](OC[C@H]2O[C@@H](Oc3c(-c4ccc(O)c(O)c4)oc4cc(O)cc(O)c4c3=O)[C@H](O)[C@@H](O)[C@@H]2O)[C@H](O)[C@H](O)[C@H]1O` [RUTOSIDE (rutin)]: the “HMGB1-induced TNF-alpha production” value (compound concentration: 3 uM) is 101%.
The same measure, in the same setting: the value for `CCCC(=O)Nc1ccc(OCC(O)CNC(C)C)c(C(C)=O)c1` (centres undefined) was 95%; that for `CCCC(=O)Nc1ccc(OCC(O)CNC(C)C)c(C(C)=O)c1` (centres undefined) [Acebutolol hydrochloride] was 58.6%; that for `CC(=O)Nc1ccc(OCC(O)CNC(C)C)cc1` (centres undefined) [Practolol] was 85 ± 16%.
Same read-out and setting: the same measure for `CN1[C@@H]2CC[C@H]1C[C@@H](OC(c1ccccc1)c1ccccc1)C2`: 99.6%.
Same read-out and setting: the same measure for `CN1[C@@H]2CC[C@H]1C[C@@H](OC(c1ccccc1)c1ccccc1)C2` [Benztropine mesylate]: 93.8 ± 27%; for `O=C(Nc1ccccc1)OCC(CN1CCCCC1)OC(=O)Nc1ccccc1` (centres undefined) [Diperodon hydrochloride]: 67.2%.
In the case of `O=C(Nc1ccccc1)OCC(CN1CCCCC1)OC(=O)Nc1ccccc1` (centres undefined), the “HMGB1-induced TNF-alpha production” value (compound concentration: 3 uM) was determined as 58.9%.
Same read-out and setting: the same measure for `CC1(C)C(=O)N(CCN2CCC(C(=O)c3ccc(F)cc3)CC2)c2ccccc21` [LY-310,762 hydrochloride]: 118%; for `CCN(CC)CC1CCCCN1CC(=O)N1c2ccccc2C(=O)Nc2cccnc21` (centres undefined): 108%; for `CC#CCC(C)[C@H](O)/C=C/[C@@H]1[C@H]2C/C(=C/CCCC(=O)O)C[C@H]2C[C@H]1O` (some centres undefined) [Iloprost]: 70.8%.
Regarding `O[C@H]1CCN2Cc3ccccc3N=C12` [Peganine HCl], the “HMGB1-induced TNF-alpha production” value under setting [1] stood at 80.3%.
With `O=C(O)c1cn(C2CC2)c2cc(N3CCNCC3)c(F)cc2c1=O` [Ciprofloxacin hydrochloride], under “compound concentration: 3 uM”, the “HMGB1-induced TNF-alpha production” value stood at 78.2%.
On the same count and under the same terms, the same measure for `O=C(O)c1cn(C2CC2)c2cc(N3CCNCC3)c(F)cc2c1=O`: 87.8 ± 1.6%; for `O=C(O)c1cn(C2CC2)c2cc(N3CCNCC3)c(F)cc2c1=O` [Ciprofloxacin]: 75.6%.
As to `CCCn1c(=O)[nH]c(=O)c2[nH]cnc21` [3-n-Propylxanthine], the “HMGB1-induced TNF-alpha production” value (compound concentration: 3 uM) worked out at 108%.
In the case of `O=c1cc(-c2ccc(O)cc2O)oc2ccccc12`, the “HMGB1-induced TNF-alpha production” value under setting [1] turned out to be 20.9%.
Consider `OC[C@H]1O[C@@H](n2cnc3c(NC4CCCC4)ncnc32)[C@H](O)[C@@H]1O` [N6-Cyclopentyladenosine], for which the “HMGB1-induced TNF-alpha production” value (compound concentration: 3 uM) came to 90%.
On the same count and under the same terms, the same measure for `C[N+](C)(C)CC=O` [Betaine aldehyde chloride]: 59.6%; for `Cn1c(=O)[nH]c2ncn(C)c2c1=O` [1,7-Dimethylxanthine]: 80.2%; for `C1COC(NC(C2CC2)C2CC2)=N1` [Rilmenidine hemifumarate]: 115%.
Still for that read-out and setting: the same measure for `C1COC(NC(C2CC2)C2CC2)=N1` [Rilmenidine]: 91.1%.
On the same count and under the same terms, the same measure for `Cc1cc(C(C)(C)C)c(O)c(C(C)(C)C)c1`: 66.6%.
For the compound `COc1ccc(-c2cc(=S)ss2)cc1` [Anethole-trithione], where the note is “compound concentration: 3 uM”, the “HMGB1-induced TNF-alpha production” value is 89.3 ± 7.8%.
Turning to `COc1cc(C(=O)NCc2ccc(OCCN(C)C)cc2)cc(OC)c1OC` [Trimethobenzamide hydrochloride], where the note is “compound concentration: 3 uM”, the “HMGB1-induced TNF-alpha production” value is 60.2%.
For `COc1cc(C(=O)NCc2ccc(OCCN(C)C)cc2)cc(OC)c1OC`, the “HMGB1-induced TNF-alpha production” value (compound concentration: 3 uM) worked out at 93.4%.
The same measure, in the same setting: the value for `CCCN1CCCC[C@H]1C(=O)Nc1c(C)cccc1C` was 101%; that for `Cc1ccc(S(=O)(=O)N[C@@H](Cc2ccccc2)C(=O)CCl)cc1` [N-p-Tosyl-L-phenylalanine chloromethyl ketone] was 70.9%.
In the case of `NC1CCN(c2cccc(Cl)n2)CC1`, the “HMGB1-induced TNF-alpha production” value (compound concentration: 3 uM) was 94.9% and 119%.
For `C[C@@H]1CC[C@H]2[C@](C)(CO)[C@@H](O)CC[C@]2(C)[C@@]12CC[C@@](CO)(CCO)O2` [Lagochiline], the “HMGB1-induced TNF-alpha production” value under setting [1] was found to be 88.8%.
Turning to `C1CCC(C(CC2CCCCN2)C2CCCCC2)CC1` (centres undefined), the “HMGB1-induced TNF-alpha production” value (compound concentration: 3 uM) was 89.2%.
With `C1CCC(C(CC2CCCCN2)C2CCCCC2)CC1` (centres undefined) [Perhexiline maleate], the “HMGB1-induced TNF-alpha production” value (compound concentration: 3 uM) was found to be 53.2%.
Still for that read-out and setting: the value for `CN1CC(=O)N2[C@H](c3ccc4c(c3)OCO4)c3[nH]c4ccccc4c3C[C@@H]2C1=O` was 70.8 ± 31%; that for `CC(C)NCC(O)COc1ccc(CCOCC2CC2)cc1` (centres undefined) [Betaxolol hydrochloride] was 72.5 ± 12%.
Still for that read-out and setting: the value for `CC(C)NCC(O)COc1ccc(CCOCC2CC2)cc1` (centres undefined) [Betaxolol] was 96.1%.
Regarding `CC(C)NCC(O)COc1ccc(CCOCC2CC2)cc1` (centres undefined), the “HMGB1-induced TNF-alpha production” value (compound concentration: 3 uM) was determined as 110%.
On the same count and under the same terms, the same measure for `CC(=O)[C@@]1(O)CC[C@H]2[C@@H]3C[C@H](C)C4=CC(=O)C=C[C@]4(C)[C@@]3(F)[C@@H](O)C[C@@]21C` [Fluorometholone]: 39.3%; for `CC(=O)[C@@]1(O)CC[C@H]2[C@@H]3C[C@H](C)C4=CC(=O)C=C[C@]4(C)[C@@]3(F)[C@@H](O)C[C@@]21C`: 39.6%.
On the same count and under the same terms, the value for `CCc1nc(N)nc(N)c1-c1ccc(Cl)cc1` was 82.1%; that for `CCc1nc(N)nc(N)c1-c1ccc(Cl)cc1` [Pyrimethamine] was 64.7%.
On the same count and under the same terms, the value for `Cc1c(C(=O)NN2CCCCC2)nn(-c2ccc(Cl)cc2Cl)c1-c1ccc(I)cc1` was 110%.
On to `O=c1ccn2c(n1)O[C@H]1[C@H](O)[C@@H](CO)O[C@H]12` [O2,2'-Cyclouridine], for which the “HMGB1-induced TNF-alpha production” value under setting [1] was 88.7%.
Consider `C[C@H]1c2cccc(O)c2C(=O)C2=C(O)[C@]3(O)C(=O)C(C(N)=O)=C(O)[C@@H](N(C)C)[C@@H]3[C@@H](O)[C@@H]21` [Doxycycline], for which the “HMGB1-induced TNF-alpha production” value (compound concentration: 3 uM) amounted to 90.9%.
On to `C[C@H]1c2cccc(O)c2C(=O)C2=C(O)[C@]3(O)C(=O)C(C(N)=O)=C(O)[C@@H](N(C)C)[C@@H]3[C@@H](O)[C@@H]21`, for which the “HMGB1-induced TNF-alpha production” value (compound concentration: 3 uM) came out at 80.6%.
Same read-out and setting: the value for `C[C@H]1c2cccc(O)c2C(=O)C2=C(O)[C@]3(O)C(=O)C(C(N)=O)=C(O)[C@@H](N(C)C)[C@@H]3[C@@H](O)[C@@H]21` [Doxycycline hydrochloride] was 94.5 ± 13%; that for `Clc1ccc(C(Cn2ccnc2)OCc2ccsc2Cl)c(Cl)c1` (centres undefined) was 63.6%.
Same read-out and setting: the value for `Clc1ccc(C(Cn2ccnc2)OCc2ccsc2Cl)c(Cl)c1` (centres undefined) [Tioconazole] was 60.6 ± 4.3%.
Still for that read-out and setting: the value for `O=C(O)CNC(=O)C(CS)Cc1ccccc1` (racemic) [DL-Thiorphan] was 109%; that for `CCCC1C(=O)N2C(N(C)C)=Nc3ccc(C)cc3N2C1=O` (centres undefined) [Azapropazone] was 95.5%; that for `c1cnc(N2CCN(Cc3ccc4c(c3)OCO4)CC2)nc1` [Piribedil maleate] was 99.1%.
As to `c1cnc(N2CCN(Cc3ccc4c(c3)OCO4)CC2)nc1` [Piribedil hydrochloride], the “HMGB1-induced TNF-alpha production” value (compound concentration: 3 uM) was found to be 96.7%.
Same read-out and setting: the same measure for `c1cnc(N2CCN(Cc3ccc4c(c3)OCO4)CC2)nc1`: 77%; for `c1cnc(N2CCN(Cc3ccc4c(c3)OCO4)CC2)nc1` [Piribedil]: 115 ± 5.8%.
Still for that read-out and setting: the same measure for `C[C@](N)(Cc1ccc(O)c(O)c1)C(=O)O` [Methyldopa]: 81.3%; for `C[C@](N)(Cc1ccc(O)c(O)c1)C(=O)O`: 81.7%; for `C[C@](N)(Cc1ccc(O)c(O)c1)C(=O)O` [Methyldopa (L,-)]: 81.7%.
Same read-out and setting: the same measure for `C[C@](N)(Cc1ccc(O)c(O)c1)C(=O)O` [L-alpha-Methyl DOPA]: 113%.
With `C/C(=C\CNc1ncnc2nc[nH]c12)CO` [trans-Zeatin], the “HMGB1-induced TNF-alpha production” value under setting [1] turned out to be 62%.
On the same count and under the same terms, the same measure for `COc1cc2c(C)cc(=O)oc2cc1Cl`: 82.8%.
